US20220119459A1 (OXFORD UNIVERSITY INNOVATION, published 2022)
Results are given in words; binding and its absence hold for the method and conditions named. Some entries that bind do so weakly or less than the wild type.

Target: AP-SpyTag002-MBP
Experiment: reaction rate by SDS-PAGE with Coomassie staining (FIG. 16)

B1: SpyCatcher variant of SEQ ID NO: 2 (SEQ ID NO: 47 with threonine at position 5) (designed binder)
chain: GAMVTTLSGLSGEQGPSGDMTTEEDSATHIKFSKRDEDGRELAGATMELRDSSGKTISTWISDGHVKDFYLYPGKYTFVETAAPDGYEVATPITFTVNEDGQVTVNGEATKGDAHT
binding: binds
